One data set is described as follows: PAMPA-GIT permeability. To be noted: PAMPA-GIT predicted absorbed fraction; 0–30% low, 30–69% medium, 70–100% high absorption. The class given is in vitro ADME.
Details of data set [1]: method as in Literature (reference not given). To be noted: absorbed fraction of PAMPA-GIT controls; ref Literature (reference not given); cited from earlier work. (The PAMPA barrier holds no transporters, so it reflects passive diffusion.)

On to `CC(C)NCC(O)COc1ccc(CC(N)=O)cc1` (centres unmarked) [Atenolol], for which the Fa% in the data set “PAMPA-GIT permeability” is 8.62%. Besides, the “Fa (Literature)” value in data set [1] is listed as 21.

The record behind these values is PMC10144566, “Pharmacokinetic Profile Evaluation of Novel Combretastatin Derivative, LASSBio-1920, as a Promising Colorectal Anticancer Agent” (Pharmaceutics, 2023).
